Our source for the binding values is US20040091992A1.

By UniProt entry, the sequences of proteins in these tests, tags left out. Where a name states a change or a piece, a line headed by the entry shows the natural chain unless it says otherwise. Chains listed by the source or under a name are the forms on record and can include a tag or linker.
UniProt P60953: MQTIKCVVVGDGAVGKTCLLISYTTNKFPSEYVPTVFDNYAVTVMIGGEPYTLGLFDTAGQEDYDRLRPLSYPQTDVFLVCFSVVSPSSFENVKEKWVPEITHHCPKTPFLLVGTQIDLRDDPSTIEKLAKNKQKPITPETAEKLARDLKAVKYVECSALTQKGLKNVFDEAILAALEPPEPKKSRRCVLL
Cdc42HsL61 (F37A) effector mutant, preloaded with [gamma-32P]GTP (P60953, form named): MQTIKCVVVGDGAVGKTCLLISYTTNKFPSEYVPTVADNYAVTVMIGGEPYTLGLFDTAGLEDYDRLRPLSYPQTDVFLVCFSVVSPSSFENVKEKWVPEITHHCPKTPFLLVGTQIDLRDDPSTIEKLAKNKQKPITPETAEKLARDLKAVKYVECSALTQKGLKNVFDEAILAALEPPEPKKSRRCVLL
Cdc42HsL61 (constitutively active), preloaded with [gamma-32P]GTP (P60953, form named): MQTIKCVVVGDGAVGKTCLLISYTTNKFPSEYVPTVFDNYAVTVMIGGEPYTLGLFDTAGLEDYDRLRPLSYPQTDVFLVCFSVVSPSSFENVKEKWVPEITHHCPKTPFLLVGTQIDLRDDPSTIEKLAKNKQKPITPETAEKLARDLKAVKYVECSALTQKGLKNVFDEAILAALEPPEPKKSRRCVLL
UniProt P42768: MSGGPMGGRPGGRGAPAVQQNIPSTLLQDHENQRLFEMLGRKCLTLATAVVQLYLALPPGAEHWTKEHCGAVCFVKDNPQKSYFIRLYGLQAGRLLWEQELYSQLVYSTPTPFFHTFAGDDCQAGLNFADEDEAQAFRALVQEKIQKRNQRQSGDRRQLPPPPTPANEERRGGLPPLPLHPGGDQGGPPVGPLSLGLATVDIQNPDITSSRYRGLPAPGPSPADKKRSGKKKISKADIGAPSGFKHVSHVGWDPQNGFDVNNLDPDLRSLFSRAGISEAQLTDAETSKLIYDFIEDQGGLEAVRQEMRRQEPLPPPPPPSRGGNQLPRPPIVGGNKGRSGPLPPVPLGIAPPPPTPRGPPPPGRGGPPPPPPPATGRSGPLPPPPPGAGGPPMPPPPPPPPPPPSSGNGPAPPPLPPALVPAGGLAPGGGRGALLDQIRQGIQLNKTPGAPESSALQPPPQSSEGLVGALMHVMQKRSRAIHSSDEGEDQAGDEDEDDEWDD

These are yes or no findings as the source states them, for the method shown. Some binding calls cover weakened binding; strength is not graded here.

Assay [1] deals with Cdc42HsL61 (F37A) effector mutant, preloaded with [gamma-32P]GTP (UniProt P60953). Briefly: overlay assay, GTP loaded Cdc42Hs mutant on blotted protein.
The target in assay [2] is Cdc42HsL61 (constitutively active), preloaded with [gamma-32P]GTP (UniProt P60953). The description is as above.

As to “Recombinant WASP (from UniProt P42768 1-502)”, the binding entry in assay [1] and in assay [2] was “binds” throughout.
